Results as given in PubChem BioAssay AID1671190 (National Center for Advancing Translational Sciences (NCATS), 2021).
Among all 580,000 compounds or so, about 6,100 (1.1%) were called active. Inconclusive means that the source gave no clear call. Such entries were picked first, then a sample of the others. Calls come from the whole dose curve; as a rule, active = well fitted inhibition curve with a large enough effect; inconclusive = small, poorly fitted or top-dose-only effect, or another doubt; inactive = no such curve, though single readings can be large or run the other way. A potency beside an inconclusive call is a rough fit, not a confirmed value.
% is set by controls: 0 for no effect and ±100 for the full control effect; potency is the fitted concentration of half-maximal effect.

Chains of the proteins cited; added tags and fusions are not shown. Lines headed by an entry give the natural chain unless they say otherwise; changes in a name come on top.
UniProt P18054: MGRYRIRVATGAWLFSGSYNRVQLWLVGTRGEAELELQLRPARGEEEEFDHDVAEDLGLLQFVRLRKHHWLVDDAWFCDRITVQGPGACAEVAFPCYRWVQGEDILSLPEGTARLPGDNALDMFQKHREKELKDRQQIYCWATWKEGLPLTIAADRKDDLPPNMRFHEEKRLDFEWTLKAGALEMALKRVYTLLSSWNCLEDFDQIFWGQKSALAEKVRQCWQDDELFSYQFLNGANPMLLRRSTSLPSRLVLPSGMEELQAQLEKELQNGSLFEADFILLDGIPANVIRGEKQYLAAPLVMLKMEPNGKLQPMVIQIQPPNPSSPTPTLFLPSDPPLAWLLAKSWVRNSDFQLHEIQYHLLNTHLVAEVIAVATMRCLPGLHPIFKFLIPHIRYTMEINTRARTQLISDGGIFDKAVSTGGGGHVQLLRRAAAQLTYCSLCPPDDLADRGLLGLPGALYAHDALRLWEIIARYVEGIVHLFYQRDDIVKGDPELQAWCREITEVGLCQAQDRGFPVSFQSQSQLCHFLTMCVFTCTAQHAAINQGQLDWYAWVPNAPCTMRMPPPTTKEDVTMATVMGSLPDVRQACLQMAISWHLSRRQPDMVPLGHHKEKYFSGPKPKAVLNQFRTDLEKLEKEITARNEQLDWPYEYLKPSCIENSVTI

Each compound was assayed against Polyunsaturated fatty acid lipoxygenase ALOX12 (Homo sapiens) (UniProt P18054) (assay: Primary qHTS assay for inhibitors of human arachidonate 12S-lipoxygenase (ALOX12): Round 2). Conditions: purified 12hLO, xylenol orange hydroperoxide absorbance; activity change, negative = inhibition: at 108 µM (top of the series) unless noted.
Procedure, shortened: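 Hydroperoxide product was detected by ferrous iron/xylenol orange as the 573 to 405 nm absorbance ratio. Arachidonic acid at 40 uM (final) was turned over for 30 min at room temperature by 150 nM human 12hLO, pH 7.0 Hepes buffer, after 15 min compound preincubation.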
With Cc1c(C(=O)N2CCC(C(=O)Nc3ccc4c(c3)OCO4)CC2)oc2ccc(F)cc12 the “activity change, negative = inhibition” value was inactive: 14%. In the case of COc1cc2c(cc1/C=C/C(=O)O)OC(C)C2 (stereo not given), the “activity change, negative = inhibition” value is reported as inactive: -10.5%. For OC[C@@H]1CN(Cc2ccncc2)C[C@H](n2cnc3c(NC4CCCC4)ncnc32)O1, the Potency was inconclusive: 35.5 µM [inhibitor, partial curve, poor fit]. For Cc1ccccc1OCCc1c(C)[nH]c(=S)[nH]c1=O, the Potency was inconclusive: 50.1 µM [inhibitor, partial curve, poor fit]. For CNCCOc1ccccc1OC(C)C, the Potency was inconclusive: 2.51 µM [inhibitor, full curve, poor fit]. Cc1nn(C)c(C)c1NC(=O)COc1ccc(Cl)cc1 was tested, and the “activity change, negative = inhibition” value was inactive: 32.9%. For CN(C)C(=O)N1CCN(C(=O)N(C)C)CC1, the Potency was inconclusive: 35.5 µM [inhibitor, single point]. CC1=NN(C(=O)CSCc2ccc(F)cc2Cl)C(O)(C(F)(F)F)C1 (stereo not given) was tested, and the “activity change, negative = inhibition” value was inactive: -0.534%. In the case of O=C(c1ccco1)N1CCN(C(c2ccccc2)c2nnnn2Cc2cccs2)CC1 (stereo not given), the Potency is reported as inconclusive: 0.501 µM [inhibitor, full curve, poor fit]. For S=c1[nH]nc(-c2ccncc2)n1/N=C/c1ccccc1Cl, the Potency was inconclusive: 141 µM [inhibitor, single point]. For CCC(=O)NC(c1ccc(OC)cc1)c1cc(Cl)c2cccnc2c1O (stereo not given), the “activity change, negative = inhibition” value was inactive: 3.47%. With Cc1cc(C)cc(C(=O)NC(CC(N)=O)c2ccc(NC3CCCCCCCCCCC3)c([N+](=O)[O-])c2)c1 (stereo not given) the Potency was inconclusive: 112 µM [inhibitor, single point]. In the case of CC(NC(=O)CC(c1ccccc1)c1cc(Cl)ccc1O)c1ccccc1 (stereo not given), the “activity change, negative = inhibition” value is reported as inactive: -16.9%. With COc1cccc(OC)c1C(=O)N1CCNCC1 the Potency was inconclusive: 0.447 µM [inhibitor, full curve, poor fit]. In the case of N#Cc1sc(NCc2cccc(Cl)c2)nc1Cl, the Potency is reported as inconclusive: 44.7 µM [inhibitor, partial curve, poor fit]. With O=C(NC(=S)N(Cc1ccccc1)c1ccccn1)C1CCCCC1 the Potency was inconclusive: 50.1 µM [inhibitor, partial curve, poor fit]. With O=C(/C=C/c1ccc2c(c1)OCCCO2)c1ccc2ccccc2c1O the “activity change, negative = inhibition” value was inactive: -8.33%. With CC1=NOC(=O)/C1=C\c1ccc(-c2ccc(Br)cc2C(=O)O)o1 the Potency was inconclusive: 28.2 µM [inhibitor, partial curve]. O=C(c1ccccc1F)N1CCCCCC1c1nnc(-c2ccccc2)o1 (stereo not given) was tested, and the “activity change, negative = inhibition” value was inactive: 4.89%. With CC(=O)NNC(=S)NC(=O)c1ccccc1 the Potency was inconclusive: 50.1 µM [inhibitor, partial curve, poor fit]. With COc1ccc2nc(C)c(C(=O)Oc3ccc(C4SCCS4)cc3OC)cc2c1 the Potency was inconclusive: 3.98 µM [inhibitor, full curve, poor fit]. For O=C(COC(=O)CCc1ccc(S(=O)(=O)N2CCOCC2)cc1)NCc1ccccc1, the Potency was inconclusive: 100 µM [inhibitor, partial curve, poor fit]. For COc1ccc(/C=C/C(=O)NC(=S)N2CCSCC2)cc1, the “activity change, negative = inhibition” value was inactive: -8.38%. For CC1Cc2ccccc2N1C(=O)Cn1cc([N+](=O)[O-])ccc1=O (stereo not given), the Potency was inconclusive: 50.1 µM [inhibitor, partial curve, poor fit]. For Cc1ccc(N(C(=O)c2cc3ccccc3oc2=O)C2C=CS(=O)(=O)C2)cc1 (stereo not given), the “activity change, negative = inhibition” value was inactive: 9.03%. For CN(Cc1ccccc1Br)C(=O)CSc1cc(C(=O)NC2CC2)c2ccccc2n1, the “activity change, negative = inhibition” value was inactive: 18.2%. With COc1cc2c(cc1OC)CN(Cc1cc(=O)oc3c(C)c(C)ccc13)CC2 the Potency was inconclusive: 56.2 µM [inhibitor, partial curve, poor fit]. With COCCCN1C(=O)C(=O)/C(=C(/O)c2ccc(S(=O)(=O)N3CCOCC3)cc2)C1c1ccc(Cl)cc1 (stereo not given) the Potency was inconclusive: 14.1 µM [inhibitor, full curve]. CCc1ccc(/C=C/c2c[nH]c3ccccc23)[n+](CC)c1 was tested, and the Potency was inconclusive: 44.7 µM [inhibitor, partial curve, poor fit]. Cc1ccc(C2(C)NC(=O)N(CC(=O)Nc3ccccc3N3CCCCC3)C2=O)cc1 (stereo not given) was tested, and the Potency was inconclusive: 89.1 µM [inhibitor, partial curve, poor fit]. With CC(C)c1ccc(NC(=O)C2CCN(S(C)(=O)=O)CC2)cc1 the Potency was inconclusive: 0.282 µM [inhibitor, full curve, poor fit]. COC(=O)C(C)Sc1n[nH]c(=S)s1 (stereo not given) was tested, and the Potency was inconclusive: 5.62 µM [inhibitor, full curve, poor fit]. In the case of CCc1cc2ccc(C)cc2nc1SCC(=O)N1CCN(C(=O)c2ccco2)CC1, the “activity change, negative = inhibition” value is reported as inactive: 0%. In the case of Cc1ccc(-n2cc(CNCCc3cscn3)c(-c3ccc(F)cc3)n2)cc1, the Potency is reported as inconclusive: 50.1 µM [inhibitor, partial curve, poor fit]. For COC(=O)c1cc(C(=O)c2c(C)cc3ccccn23)cc([N+](=O)[O-])c1, the Potency was inconclusive: 112 µM [inhibitor, partial curve, poor fit]. With CNC(=O)[C@@H]1C[C@H](n2cc(CN(C)C(=O)NCC3CCCCC3)nn2)CN1 the “activity change, negative = inhibition” value was inactive: 55.9%. Cc1cc(C)c2nc(C)cc(N/N=C/c3ccc(O)cc3)c2c1 was tested, and the Potency was inconclusive: 44.7 µM [inhibitor, partial curve, poor fit]. NC(=O)c1nsc(C(=O)N(Cc2ccco2)C(C(=O)NCc2ccccc2)c2ccc(O)cc2)c1N (stereo not given) was tested, and the activity change, negative = inhibition was inconclusive: -35.8% [inhibitor]. COc1cc(Br)cc(CN2CCN(C=O)CC2)c1O was tested, and the Potency was inconclusive: 1 µM [inhibitor, full curve, poor fit]. With COc1ccccc1CNC(=O)c1ccccc1C(=O)c1cccs1 the Potency was inconclusive: 50.1 µM [inhibitor, partial curve, poor fit]. For CN(C)C(=O)c1ccc(Br)s1, the “activity change, negative = inhibition” value was inactive: -12.6%. COC(=O)C1=C(C)N=C2SC=C(CC(=O)Nc3cc(C)cc(C)c3)N2C1c1ccccc1OC (stereo not given) was tested, and the “activity change, negative = inhibition” value was inactive: -1.09%. O=C(C1CCC1)N1CCN(C2CCN(Cc3ccccn3)C2=O)CC1 (stereo not given) was tested, and the “activity change, negative = inhibition” value was inactive: 74.6%. With CN(C)Cc1csc(NC(=O)Nc2ccccc2Oc2ccccc2)n1 the Potency was inconclusive: 89.1 µM [inhibitor, partial curve, poor fit]. With O=C(/C=C\c1ccc2c(c1)OCO2)Nc1c2c(nn1-c1ccc(Cl)cc1)CSC2 the Potency was inconclusive: 10 µM [inhibitor, full curve]. Cc1cc(C)c2c(=O)cc(C(=O)N(Cc3cccc(Cl)c3)C3CCS(=O)(=O)C3)oc2c1 (stereo not given) was tested, and the Potency was inconclusive: 100 µM [inhibitor, partial curve, poor fit]. For Oc1ccc(/C(Cc2ccc3ccccc3n2)=N\Nc2ccccc2)c(O)c1, the Potency was inconclusive: 25.1 µM [inhibitor, partial curve]. With O=[N+]([O-])c1cc(Cl)cc(/C=N/NC(=S)Nc2ccc(S(=O)(=O)N3CCOCC3)cc2)c1O the Potency was inconclusive: 50.1 µM [inhibitor, partial curve, poor fit]. For CC(C)n1nc(C(=O)Nc2nnc(C3CC3)s2)c2ccccc2c1=O, the Potency was inconclusive: 39.8 µM [inhibitor, single point]. For COc1ccc(C)cc1NC(C)C(=O)NC(=O)NC1CCCCC1 (stereo not given), the Potency was inconclusive: 126 µM [inhibitor, single point]. O=C(CN1CCSC1=NCc1ccccc1)c1ccc(Cl)cc1 was tested, and the “activity change, negative = inhibition” value was inactive: -21.9%. In the case of CC(=O)Nc1ccc(S(=O)(=O)N2CCC(NC(=O)CCC(C)C)CC2)cc1, the Potency is reported as inconclusive: 28.2 µM [inhibitor, single point]. NS(=O)(=O)c1cccc(NC(=O)CSc2nc3nc(-c4cccs4)cc(C(F)(F)F)c3c(=O)[nH]2)c1 was tested, and the Potency was inconclusive: 44.7 µM [inhibitor, partial curve, poor fit]. O=[N+]([O-])c1ccc(Oc2cccc(C(F)(F)F)c2)c2ccncc12 was tested, and the Potency was inconclusive: 1.78 µM [inhibitor, full curve, poor fit]. In the case of Cc1ccc(CN2C(=O)c3ccccc3Sc3ccc(C(=O)NCCN4CCOCC4)cc32)cc1, the Potency is reported as inconclusive: 89.1 µM [inhibitor, partial curve, poor fit]. For N#Cc1ccc(OCCOC(=O)c2ccc(COc3ccccc3)o2)cc1, the “activity change, negative = inhibition” value was inactive: 6.98%. Cc1cc(C)c2ccc(NN)nc2c1O was tested, and the Potency was inconclusive: 15.8 µM [inhibitor, partial curve, poor fit]. In the case of CC(C)(C)OC(=O)Nc1ccccc1-n1nnnc1C(C(=O)c1ccccc1)N1CCN(c2ccccn2)CC1 (stereo not given), the Potency is reported as inconclusive: 126 µM [inhibitor, single point]. With O=C(NC1CC1)C1CCN(c2ccc(S(=O)(=O)N3CCOCC3)cc2)CC1 the “activity change, negative = inhibition” value was inactive: 23.4%. C#CCOCCOCCOCCNc1nc(N2CCN(C(=O)[C@H](CCCCN)n3cc(CN)nn3)CC2)nc(N2CCN(C(=O)[C@H](CCCN=C(N)N)n3cc(C(N)[C@H](C)CC)nn3)CC2)n1 (stereo not given in full) was tested, and the Potency was inconclusive: 89.1 µM [inhibitor, partial curve, poor fit]. For OB(O)c1cccc2c1Sc1ccccc1S2, the Potency was inconclusive: 70.8 µM [inhibitor, partial curve, poor fit]. In the case of Cc1ccc(CCNC(=O)C2CCCN(c3nnc(C)c4c(C)n(-c5ccccc5)nc34)C2)cc1 (stereo not given), the “activity change, negative = inhibition” value is reported as inactive: -13.8%. For Cc1nc(C)c(C(=O)O)cc1C(=O)O, the Potency was inconclusive: 31.6 µM [inhibitor, partial curve, poor fit]. Oc1ccc(/C=N/Nc2ccnc3cc(Cl)ccc23)c(O)c1O was tested, and the Potency was inconclusive: 44.7 µM [inhibitor, partial curve]. For N#Cc1ccc(OCCn2nc(C(=O)O)c3ccccc3c2=O)cc1, the Potency was inconclusive: 100 µM [inhibitor, single point].
